One molecule from patent publication US20230313199A1 (published 2023) can be followed below.

The experiment has as its target T1, HA-tagged murine MFSD7C (mouse, UniProt Q91X85 1-551).
T1 construct: Expressed by transfection in 293FT / HEK 293T cells; also called HA-MFSD7C; pCMV6-AN-3HA-MFSD7C; not shown: N-terminal HA tag from vector pCMV6-AN-3HA
T1 sequence (looked up): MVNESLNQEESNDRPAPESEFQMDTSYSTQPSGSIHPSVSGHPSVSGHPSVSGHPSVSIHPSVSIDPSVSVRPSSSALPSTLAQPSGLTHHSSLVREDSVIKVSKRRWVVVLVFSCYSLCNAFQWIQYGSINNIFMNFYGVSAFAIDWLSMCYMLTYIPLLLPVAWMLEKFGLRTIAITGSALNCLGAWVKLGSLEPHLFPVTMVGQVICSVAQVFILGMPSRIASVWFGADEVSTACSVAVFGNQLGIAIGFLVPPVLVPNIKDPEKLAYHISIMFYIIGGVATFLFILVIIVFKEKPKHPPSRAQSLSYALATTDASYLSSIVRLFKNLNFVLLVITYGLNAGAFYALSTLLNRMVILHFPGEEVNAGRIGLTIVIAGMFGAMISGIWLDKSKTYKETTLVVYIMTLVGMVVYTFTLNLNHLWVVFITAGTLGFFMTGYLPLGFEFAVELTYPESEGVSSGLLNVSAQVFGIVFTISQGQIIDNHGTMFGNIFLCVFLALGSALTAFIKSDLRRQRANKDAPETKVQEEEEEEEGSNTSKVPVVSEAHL
Description: co-IP and Western blot, co-transfected 293FT cells, without heme (less or very little with 10 or 40 µM heme). The method, then:
Co-transfection and immunoprecipitation. For co-IP, HA-tagged MFSD7C was co-transfected with FLAG-tagged HMOX1 (Origene Catalog No. MR203944), CYC1, COX4I1, NDUFA4, ATP5h, ATP5c1 into 293FT cells using TransIT®-LT1 Transfection Reagent (Mirus). Thirty-six hours after transfection, the cells were lysed using cold Lysis Buffer containing 20 mM Tris-HCl (pH 7.4), 150 mM NaCl, 0.1% NP-40, 10% glycerol, proteinase inhibitor (Sigma Catalog No. 4693132001), and phosphatase inhibitors (Sigma Catalog No. 4906845001). The clear supernatants from the lysate were incubated with M2-magnetic beads conjugated with anti-FLAG antibody (Sigma Catalog No. M8823) for 2 hours at 4° C. Then the beads were washed twice and eluted by the 3× FLAG peptides (Sigma Catalog No. F4799).
To determine the effect of heme on MFSD7C interactions with ETC components, HMOX1 or SERCA2b, 293FT cells were transiently transfected with HA-tagged murine MFSD7C and FLAG-tagged murine CYC1, NDUFA4, COX4i1, ATP5h, ATP5c1, HMOX1 or SERCA2b. 35 hrs later, co-transfected cells were incubated with DMSO (vehicle) or 10 μM or 40 μM of heme for one hour before lysis. Cell lysates were precipitated with anti-HA antibody, eluted with HA peptide, further precipitated with anti-FLAG antibody, eluted with FLAG peptide, and then subjected to Western blotting with anti-HA and anti-FLAG antibodies. […]

B1: FLAG-tagged murine COX4I1 (other, mouse, UniProt P19783 23-169, looked up)
chain: AHGSVVKSEDYAFPTYADRRDYPLPDVAHVTMLSASQKALKEKEKADWSSLSRDEKVQLYRIQFNESFAEMNRGTNEWKTVVGMAMFFIGFTALVLIWEKSYVYGPIPHTFDRDWVAMQTKRMLDMKANPIQGFSAKWDYDKNEWKK
notes: Complex IV component; expressed by transfection; also called pCMV6-AC-DDK-Cox4i1; not shown: C-terminal FLAG (DDK) tag
With B1, the binding result was “binds”.
